Data taken from the supplement of paper PMC8728848.
The other results are listed elsewhere or left out.

Assays:
Assay in all cases: glycan array binding signal (z-score within array); higher = stronger binding
Conditions in all cases: glycan notation: IUPAC condensed, linker removed
[1] = target: Neu5Ac(a2-3)Gal(b1-4)GlcNAc(b1-6)GalNAc
Outline: (§1)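 The Consortium for Functional Glycomics database supplied 3228 glycan arrays, of which those lacking an available protein sequence were dropped. The binding signal, a within-array Z-score, was averaged across arrays of the same protein sequence and across linkers. Negative scores can be read as non-binding.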

[2] = target: Neu5Ac(a2-3)Gal(b1-4)GlcNAc(b1-6)[Gal(b1-3)]GalNAc
Outline: as §1

[3] = target: Neu5Ac(a2-3)Gal(b1-4)GlcNAc(b1-6)[Neu5Ac(a2-3)Gal(b1-3)]GalNAc
Outline: as §1

[4] = target: Neu5Ac(a2-3)Gal(b1-4)GlcNAc6S
Outline: as §1

[5] = target: Neu5Ac(a2-3)Gal(b1-4)[Fuc(a1-3)]GlcNAc
Outline: as §1

[6] = target: Neu5Ac(a2-3)Gal(b1-4)[Fuc(a1-3)]GlcNAc(b1-2)Man
Outline: as §1

[7] = target: Neu5Ac(a2-3)Gal(b1-4)[Fuc(a1-3)]GlcNAc(b1-3)Gal
Outline: as §1

[8] = target: Neu5Ac(a2-3)Gal(b1-4)[Fuc(a1-3)]GlcNAc(b1-3)Gal(b1-4)GlcNAc
Outline: as §1

[9] = target: Neu5Ac(a2-3)Gal(b1-4)[Fuc(a1-3)]GlcNAc(b1-3)Gal(b1-4)[Fuc(a1-3)]GlcNAc(b1-3)Gal(b1-4)[Fuc(a1-3)]GlcNAc
Outline: as §1

[10] = target: Neu5Ac(a2-3)Gal(b1-4)[Fuc(a1-3)]GlcNAc(b1-3)GalNAc
Outline: as §1

[11] = target: Neu5Ac(a2-3)Gal(b1-4)[Fuc(a1-3)]GlcNAc(b1-6)[Gal(b1-3)]GalNAc
Outline: as §1

[12] = target: Neu5Ac(a2-3)Gal(b1-4)[Fuc(a1-3)]GlcNAc(b1-6)[Neu5Ac(a2-3)Gal(b1-3)]GalNAc
Outline: as §1

[13] = target: Neu5Ac(a2-3)Gal(b1-4)[Fuc(a1-3)]GlcNAc6S
Outline: as §1

[14] = target: Neu5Ac(a2-3)Gal6S(b1-4)GlcNAc
Outline: as §1

[15] = target: Neu5Ac(a2-3)Gal6S(b1-4)[Fuc(a1-3)]GlcNAc
Outline: as §1

Neu5Ac(a2-3)GalNAc = target: Neu5Ac(a2-3)GalNAc
Outline: as §1

[16] = target: Neu5Ac(a2-3)GalNAc(b1-4)GlcNAc
Outline: as §1

[17] = target: Neu5Ac(a2-3)[GalNAc(b1-4)]Gal(b1-4)Glc
Outline: as §1

[18] = target: Neu5Ac(a2-3)[GalNAc(b1-4)]Gal(b1-4)GlcNAc
Outline: as §1

[19] = target: Neu5Ac(a2-3)[GalNAc(b1-4)]Gal(b1-4)GlcNAc(b1-3)GalNAc
Outline: as §1

[20] = target: Neu5Ac(a2-3)[Neu5Ac(a2-6)]GalNAc
Outline: as §1

Neu5Ac(a2-6)Gal = target: Neu5Ac(a2-6)Gal
Outline: as §1

[21] = target: Neu5Ac(a2-6)Gal(b1-3)GlcNAc(b1-3)[Gal(b1-4)GlcNAc(b1-6)]Gal(b1-4)Glc
Outline: as §1

Neu5Ac(a2-6)Gal(b1-4)Glc = target: Neu5Ac(a2-6)Gal(b1-4)Glc
Outline: as §1

[22] = target: Neu5Ac(a2-6)Gal(b1-4)GlcNAc
Outline: as §1

[23] = target: Neu5Ac(a2-6)Gal(b1-4)GlcNAc(b1-2)Man
Outline: as §1

[24] = target: Neu5Ac(a2-6)Gal(b1-4)GlcNAc(b1-2)Man(a1-3)Man(b1-4)GlcNAc(b1-4)GlcNAc
Outline: as §1

[25] = target: Neu5Ac(a2-6)Gal(b1-4)GlcNAc(b1-2)Man(a1-3)[Gal(b1-4)GlcNAc(b1-2)Man(a1-6)]Man(b1-4)GlcNAc(b1-4)GlcNAc
Outline: as §1

[26] = target: Neu5Ac(a2-6)Gal(b1-4)GlcNAc(b1-2)Man(a1-3)[GlcNAc(b1-2)Man(a1-6)]Man(b1-4)GlcNAc(b1-4)GlcNAc
Outline: as §1

[27] = target: Neu5Ac(a2-6)Gal(b1-4)GlcNAc(b1-2)Man(a1-3)[GlcNAc(b1-4)][Neu5Ac(a2-6)Gal(b1-4)GlcNAc(b1-2)Man(a1-6)]Man(b1-4)GlcNAc(b1-4)GlcNAc
Outline: as §1

[28] = target: Neu5Ac(a2-6)Gal(b1-4)GlcNAc(b1-2)Man(a1-3)[Man(a1-6)]Man(b1-4)GlcNAc(b1-4)GlcNAc
Outline: as §1

[29] = target: Neu5Ac(a2-6)Gal(b1-4)GlcNAc(b1-2)Man(a1-3)[Neu5Ac(a2-3)Gal(b1-4)GlcNAc(b1-2)Man(a1-6)]Man(b1-4)GlcNAc(b1-4)GlcNAc
Outline: as §1

[30] = target: Neu5Ac(a2-6)Gal(b1-4)GlcNAc(b1-2)Man(a1-3)[Neu5Ac(a2-6)Gal(b1-4)GlcNAc(b1-2)Man(a1-6)]Man(b1-4)GlcNAc(b1-4)GlcNAc
Outline: as §1

[31] = target: Neu5Ac(a2-6)Gal(b1-4)GlcNAc(b1-2)Man(a1-3)[Neu5Ac(a2-6)Gal(b1-4)GlcNAc(b1-2)Man(a1-6)]Man(b1-4)GlcNAc(b1-4)[Fuc(a1-6)]GlcNAc
Outline: as §1

[32] = target: Neu5Ac(a2-6)Gal(b1-4)GlcNAc(b1-2)Man(a1-6)Man(b1-4)GlcNAc(b1-4)GlcNAc
Outline: as §1

[33] = target: Neu5Ac(a2-6)Gal(b1-4)GlcNAc(b1-2)Man(a1-6)[Gal(b1-4)GlcNAc(b1-2)Man(a1-3)]Man(b1-4)GlcNAc(b1-4)GlcNAc
Outline: as §1

[34] = target: Neu5Ac(a2-6)Gal(b1-4)GlcNAc(b1-2)Man(a1-6)[GlcNAc(b1-2)Man(a1-3)]Man(b1-4)GlcNAc(b1-4)GlcNAc
Outline: as §1

[35] = target: Neu5Ac(a2-6)Gal(b1-4)GlcNAc(b1-2)Man(a1-6)[Man(a1-3)]Man(b1-4)GlcNAc(b1-4)GlcNAc
Outline: as §1

[36] = target: Neu5Ac(a2-6)Gal(b1-4)GlcNAc(b1-2)[Neu5Ac(a2-6)Gal(b1-4)GlcNAc(b1-4)]Man(a1-3)[GlcNAc(b1-4)][Neu5Ac(a2-6)Gal(b1-4)GlcNAc(b1-2)[Neu5Ac(a2-6)Gal(b1-4)GlcNAc(b1-6)]Man(a1-6)]Man(b1-4)GlcNAc(b1-4)GlcNAc
Outline: as §1

[37] = target: Neu5Ac(a2-6)Gal(b1-4)GlcNAc(b1-2)[Neu5Ac(a2-6)Gal(b1-4)GlcNAc(b1-4)]Man(a1-3)[GlcNAc(b1-4)][Neu5Ac(a2-6)Gal(b1-4)GlcNAc(b1-4)Man(a1-6)]Man(b1-4)GlcNAc(b1-4)GlcNAc
Outline: as §1

[38] = target: Neu5Ac(a2-6)Gal(b1-4)GlcNAc(b1-2)[Neu5Ac(a2-6)Gal(b1-4)GlcNAc(b1-6)]Man(a1-6)[Neu5Ac(a2-6)Gal(b1-4)GlcNAc(b1-2)Man(a1-3)][GlcNAc(b1-4)]Man(b1-4)GlcNAc(b1-4)GlcNAc
Outline: as §1

[39] = target: Neu5Ac(a2-6)Gal(b1-4)GlcNAc(b1-3)Gal(b1-3)GlcNAc
Outline: as §1

[40] = target: Neu5Ac(a2-6)Gal(b1-4)GlcNAc(b1-3)Gal(b1-4)GlcNAc
Outline: as §1

[41] = target: Neu5Ac(a2-6)Gal(b1-4)GlcNAc(b1-3)Gal(b1-4)GlcNAc(b1-2)Man(a1-3)[Neu5Ac(a2-6)Gal(b1-4)GlcNAc(b1-3)Gal(b1-4)GlcNAc(b1-2)Man(a1-6)]GalNAc
Outline: as §1

[42] = target: Neu5Ac(a2-6)Gal(b1-4)GlcNAc(b1-3)Gal(b1-4)GlcNAc(b1-3)Gal(b1-4)GlcNAc
Outline: as §1

[43] = target: Neu5Ac(a2-6)Gal(b1-4)GlcNAc(b1-3)Gal(b1-4)GlcNAc(b1-3)Gal(b1-4)GlcNAc(b1-2)Man(a1-3)[Neu5Ac(a2-6)Gal(b1-4)GlcNAc(b1-3)Gal(b1-4)GlcNAc(b1-3)Gal(b1-4)GlcNAc(b1-2)Man(a1-6)]GalNAc
Outline: as §1

B1: PX14375A-pdi-503-28-503 (Parabacteroides distasonis) (protein)
chain: PLGSPEAGDISEERQAFLRLTAVYSVMKDFRYTWSMQCFGDVLSNDATYSGSSNDAQTFTLLENYQYQADHTEILNKYRYSYQCINKANLFIRDMEMADDALFSKYDKEQMIGEAKFIRAYTYFELVKTFGGVPCYTGVLDLDHERLGRASVEEIYSVIEQDLNDAVSVLPKKSEVANYESSYAGRITKGAAIAMQTRIYLYEKKYDEVKKAFEKFQNECGGEYSLVAPEDYTWQFSLDGEHCSSSILEVNMYNSSTQSSYNVNNGNRHVLMSMPRNMTIGFGCAQPTQALADAYDAEGDVIRKKTTLLSTEEAIEIETAAKGDVAPVTDDRTGWYNRKLYLAPGQREENRGNNQPTNLRLIRLAEVYLNYAEACYFSGDIANAQKYLNEVRSHVNLAPKNHTGSQLFEDIMNERHLEFGMEGFRFFDVVRVGWGEKVFNGTKKAEFGAKTPFSAGAEVLPIPQTEIDISDGLITN
- glycan array binding signal (z-score) [1]: -0.486
- glycan array binding signal (z-score) [2]: -0.492
- glycan array binding signal (z-score) [3]: -0.357
- glycan array binding signal (z-score) [4]: -0.628
- glycan array binding signal (z-score) [5]: -0.22
- glycan array binding signal (z-score) [6]: -0.567
- glycan array binding signal (z-score) [7]: -1
- glycan array binding signal (z-score) [8]: 0.15
- glycan array binding signal (z-score) [9]: -0.254
- glycan array binding signal (z-score) [10]: 0.723
- glycan array binding signal (z-score) [11]: -0.136
- glycan array binding signal (z-score) [12]: 1.22
- glycan array binding signal (z-score) [13]: -0.805
- glycan array binding signal (z-score) [14]: -0.371
- glycan array binding signal (z-score) [15]: -0.444
- glycan array binding signal (z-score) (Neu5Ac(a2-3)GalNAc): -0.004
- glycan array binding signal (z-score) [16]: -0.35
- glycan array binding signal (z-score) [17]: -0.559
- glycan array binding signal (z-score) [18]: -0.748
- glycan array binding signal (z-score) [19]: -1.13
- glycan array binding signal (z-score) [20]: 0.006
- glycan array binding signal (z-score) (Neu5Ac(a2-6)Gal): -0.64
- glycan array binding signal (z-score) [21]: -0.115
- glycan array binding signal (z-score) (Neu5Ac(a2-6)Gal(b1-4)Glc): -0.412
- glycan array binding signal (z-score) [22]: 0.653
- glycan array binding signal (z-score) [23]: -0.429
- glycan array binding signal (z-score) [24]: -0.039
- glycan array binding signal (z-score) [25]: -0.384
- glycan array binding signal (z-score) [26]: 0.971
- glycan array binding signal (z-score) [27]: -0.521
- glycan array binding signal (z-score) [28]: -0.114
- glycan array binding signal (z-score) [29]: -0.158
- glycan array binding signal (z-score) [30]: 0.013
- glycan array binding signal (z-score) [31]: 0.073
- glycan array binding signal (z-score) [32]: -0.882
- glycan array binding signal (z-score) [33]: -0.819
- glycan array binding signal (z-score) [34]: -0.508
- glycan array binding signal (z-score) [35]: -0.062
- glycan array binding signal (z-score) [36]: -0.373
- glycan array binding signal (z-score) [37]: 0.454
- glycan array binding signal (z-score) [38]: 0.656
- glycan array binding signal (z-score) [39]: -0.469
- glycan array binding signal (z-score) [40]: -0.106
- glycan array binding signal (z-score) [41]: 0.642
- glycan array binding signal (z-score) [42]: 0.319
- glycan array binding signal (z-score) [43]: 1.64
